Measured data: PubChem BioAssay AID1259254 (NCATS, 2017)
Assay: 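Gene knock-downs that lead to re-replication, shown by excess G2 DNA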 (primary screen). Cell system: human HCT116 colorectal cancer cells. Reagent: single siRNA against human genes. Duration: 3 days. Detection: 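Nuclei stained with Hoechst and imaged; cell-cycle phase assigned by DNA content; G2 share scaled per plate, non-targeting siRNA 0%, GMNN siRNA 100%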. Reading the numbers: G2 robust z-score: higher = more G2 cells, more excess DNA replication. Hit rule: 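Active siRNAs have a G2 robust z of 5 or more median absolute deviations over the median, which in these data means about 38% or higher of GMNN control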.
This is one part, drawn at random, of about 59,000 deposited reagents. Of all reagents, about 1,550 (2.6%) are marked active. 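G2 share is only a proxy for re-replication; each gene was hit by three separate siRNAs, and active genes were retested.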 Unmarked entries are inactive. Reagents against one gene are numbered here. Further read-outs or replicates are left out here. Not stated in the record: the amount of reagent.

gene symbol | reagent no. | G2 robust z-score
HAPLN3 | 1 | 0.962
HAPLN3 | 2 | 0.843
HAPLN3 | 3 | -1.05
USP8 | 1 | -0.586
USP8 | 2 | -0.926
USP8 | 3 | 0.447
ZNF705G | 1 | 0.619
ZNF705G | 2 | 0.468
ZNF705G | 3 | -0.51
MCM9 | 1 | 4.02
MCM9 | 2 | 0.0347
MCM9 | 3 | -1.25
COL4A4 | 1 | -0.37
COL4A4 | 2 | 2.26
COL4A4 | 3 | -0.235
ZNF677 | 1 | -0.0228
ZNF677 | 2 | -0.0539
ZNF677 | 3 | 1.59
ST6GALNAC6 | 1 | 0.266
ST6GALNAC6 | 2 | 2.45
ST6GALNAC6 | 3 | 0.789
ARL14 | 1 | -0.192
ARL14 | 2 | 2.79
ARL14 | 3 | 3.62
SLCO2A1 | 1 | 2.27
SLCO2A1 | 2 | -0.651
SLCO2A1 | 3 | 0.554
HAND2-AS1 | 1 | 0.691
HAND2-AS1 | 2 | 2.46
HAND2-AS1 | 3 | 0.819
LGALS16 | 1 | 3.75
LGALS16 | 2 | -0.962
LGALS16 | 3 | 0.375
BEX3 | 1 | 1.16
BEX3 | 2 | 4.51
BEX3 | 3 | -0.579
CD274 | 1 | 3.75
CD274 | 2 | -0.277
CD274 | 3 | 1.01
PAXX | 1 | -0.35
PAXX | 2 | -1.2
PAXX | 3 | 0.279
DDHD1 | 1 | -0.242
DDHD1 | 2 | -0.756
DDHD1 | 3 | -0.467
ROPN1 | 1 | 3.77
ROPN1 | 2 | 0
ROPN1 | 3 | 1.42
EDEM1 | 1 | 0.581
EDEM1 | 2 | -0.467
EDEM1 | 3 | 0.685
LINC01776 | 1 | -0.547
LINC01776 | 2 | 0.238
LINC01776 | 3 | -0.118
SLC25A36 | 1 | -0.932
SLC25A36 | 2 | 1.22
SLC25A36 | 3 | 1.81
OR5AU1 | 1 | -0.719
OR5AU1 | 2 | 2.06
OR5AU1 | 3 | -0.603
ADIPOR2 | 1 | 1.07
ADIPOR2 | 2 | 1.4
ADIPOR2 | 3 | 0.747
RPL15 | 1 | 0.153
RPL15 | 2 | 5.14 (active)
RPL15 | 3 | 0.223
CXCL14 | 1 | 2.76
CXCL14 | 2 | 0.414
CXCL14 | 3 | -0.588
GHR | 1 | 6.87 (active)
GHR | 2 | -0.215
GHR | 3 | -0.778
OR2B3 | 1 | 0.705
OR2B3 | 2 | 0.00141
OR2B3 | 3 | 3.75
ZNF816 | 1 | -0.404
ZNF816 | 2 | -0.271
ZNF816 | 3 | 0.537
KHK | 1 | -0.4
KHK | 2 | -0.383
KHK | 3 | 0.196
CD27 | 1 | 1.86
CD27 | 2 | -1.01
CD27 | 3 | 1.01
LOC390846 | 1 | 0.386
LOC390846 | 2 | 0.103
LOC390846 | 3 | -0.358

Active calls (from the list above):
gene symbol | reagent no. | G2 robust z-score
RPL15 | 2 | 5.14 (active)
GHR | 1 | 6.87 (active)
